## Melanoma cell counts after drug treatment

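The test systems are human melanoma cell lines, treated with a pair of drugs for 72 h and then stained and imaged. Each value is the count of nuclei relative to DMSO-treated wells, in %, so that 100 equals the control. Every drug was used at one fixed concentration, the higher of two screened. The file gives one value for each pair and line, without errors, so small differences may be noise.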 This is part of the screen, not chosen by result.

Compounds and concentrations:
bortezomib, 0.005 µM: CC(C)C[C@H](NC(=O)[C@H](Cc1ccccc1)NC(=O)c1cnccn1)B(O)O
NVP-TAE684, 0.4 µM: COc1cc(N2CCC(N3CCN(C)CC3)CC2)ccc1Nc1ncc(Cl)c(Nc2ccccc2S(=O)(=O)C(C)C)n1
bexarotene, 10 µM: C=C(c1ccc(C(=O)O)cc1)c1cc2c(cc1C)C(C)(C)CCC2(C)C
YM155, 0.002 µM: COCC[n+]1c2c(n(Cc3cnccn3)c1C)C(=O)c1ccccc1C2=O
dasatinib, 0.02 µM: Cc1nc(Nc2ncc(C(=O)Nc3c(C)cccc3Cl)s2)cc(N2CCN(CCO)CC2)n1
cisplatin, 8 µM: N.N.[Cl][Pt][Cl]
BMS-536924, 1 µM: Cc1cc(N2CCOCC2)cc2[nH]c(-c3c(NC[C@@H](O)c4cccc(Cl)c4)cc[nH]c3=O)nc12
tanespimycin, 0.01 µM: C=CCNC1=C2C[C@@H](C)C[C@H](OC)[C@H](O)[C@@H](C)/C=C(\C)[C@H](OC(N)=O)[C@@H](OC)/C=C\C=C(/C)C(=O)NC(=CC1=O)C2=O

Combination,COLO 829,C32,COLO 800,WM451Lu,COLO 792,WM3619
tanespimycin + YM155,83.3,45.7,38.1,27.6,52.0,36.3
cisplatin + dasatinib,72.9,73.3,78.1,115,52.2,79.3
bortezomib + tanespimycin,12.8,24.0,58.9,21.3,29.9,8.5
YM155 + BMS-536924,102,84.2,7.1,42.6,35.4,81.6
NVP-TAE684 + BMS-536924,95.6,68.0,34.8,68.6,53.4,88.0
dasatinib + BMS-536924,66.8,64.8,36.3,51.3,13.1,80.6
YM155 + NVP-TAE684,70.6,88.6,28.3,36.0,53.3,106
cisplatin + YM155,87.2,107,51.4,30.7,61.3,64.5
YM155 + bexarotene,78.3,126,40.4,45.6,88.5,114
BMS-536924 + cisplatin,165,74.2,45.9,83.6,68.9,78.7
BMS-536924 + bortezomib,17.7,29.7,39.8,27.6,34.4,6.0
bexarotene + BMS-536924,111,113,38.0,89.4,71.2,104
tanespimycin + NVP-TAE684,85.5,5.2,37.7,80.5,66.4,55.5
NVP-TAE684 + cisplatin,103,102,65.6,95.8,93.4,57.9
NVP-TAE684 + bexarotene,51.6,75.0,74.3,82.2,88.4,83.0
cisplatin + bortezomib,9.9,23.0,50.2,22.9,29.9,3.8
tanespimycin + bexarotene,76.3,23.5,115,61.2,58.5,55.9
tanespimycin + dasatinib,57.7,21.9,58.7,85.0,39.9,33.1
bexarotene + bortezomib,8.4,14.9,93.4,19.3,30.6,3.3
cisplatin + bexarotene,52.6,97.5,116,100,83.4,113
cisplatin + tanespimycin,78.7,33.2,156,55.4,78.4,52.5
dasatinib + NVP-TAE684,51.0,29.5,34.2,55.6,26.6,46.0
dasatinib + YM155,38.5,81.0,26.8,25.5,29.5,76.9
BMS-536924 + tanespimycin,91.8,21.4,39.1,70.1,41.3,57.5

Some entries from above, unchanged:

Combination,COLO 829,C32,COLO 800,WM451Lu,COLO 792,WM3619
BMS-536924 + bortezomib,17.7,29.7,39.8,27.6,34.4,6.0
tanespimycin + NVP-TAE684,85.5,5.2,37.7,80.5,66.4,55.5
NVP-TAE684 + cisplatin,103,102,65.6,95.8,93.4,57.9

Data from the primary screen of doi:10.1371/journal.pone.0140310, rounded.